The target of assay [1] is T1, BD-MPK8 (mitogen-activated protein kinase 8 fused to the GAL4 binding domain) (Arabidopsis thaliana) (UniProt Q9LM33).
T1 sequence: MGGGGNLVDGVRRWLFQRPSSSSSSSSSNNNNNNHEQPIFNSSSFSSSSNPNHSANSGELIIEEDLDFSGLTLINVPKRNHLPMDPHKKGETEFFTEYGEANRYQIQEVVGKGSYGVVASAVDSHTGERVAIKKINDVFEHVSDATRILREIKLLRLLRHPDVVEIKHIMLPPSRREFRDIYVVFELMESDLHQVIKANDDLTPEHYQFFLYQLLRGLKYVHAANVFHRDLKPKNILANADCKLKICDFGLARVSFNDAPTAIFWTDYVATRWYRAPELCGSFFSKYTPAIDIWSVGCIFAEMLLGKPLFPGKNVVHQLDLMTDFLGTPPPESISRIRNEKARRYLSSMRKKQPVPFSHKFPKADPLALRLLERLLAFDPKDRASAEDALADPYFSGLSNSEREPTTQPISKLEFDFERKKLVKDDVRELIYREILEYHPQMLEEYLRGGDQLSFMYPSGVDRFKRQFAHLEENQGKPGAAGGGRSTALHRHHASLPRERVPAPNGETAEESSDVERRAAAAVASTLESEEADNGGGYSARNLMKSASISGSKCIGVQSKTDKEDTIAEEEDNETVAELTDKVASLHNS
Put plainly: two-hybrid; Matchmaker GAL4-based system, yeast strain AH109; AD-LSF2 (pGAD424) with BD-MPK8 (pGBT9); SD/-Leu/-Trp/-His with 20 mM 3-AT.

For assay [2], the target named is T2, MPK8-cEYFP (Arabidopsis thaliana) (UniProt Q9LM33).
T2 sequence: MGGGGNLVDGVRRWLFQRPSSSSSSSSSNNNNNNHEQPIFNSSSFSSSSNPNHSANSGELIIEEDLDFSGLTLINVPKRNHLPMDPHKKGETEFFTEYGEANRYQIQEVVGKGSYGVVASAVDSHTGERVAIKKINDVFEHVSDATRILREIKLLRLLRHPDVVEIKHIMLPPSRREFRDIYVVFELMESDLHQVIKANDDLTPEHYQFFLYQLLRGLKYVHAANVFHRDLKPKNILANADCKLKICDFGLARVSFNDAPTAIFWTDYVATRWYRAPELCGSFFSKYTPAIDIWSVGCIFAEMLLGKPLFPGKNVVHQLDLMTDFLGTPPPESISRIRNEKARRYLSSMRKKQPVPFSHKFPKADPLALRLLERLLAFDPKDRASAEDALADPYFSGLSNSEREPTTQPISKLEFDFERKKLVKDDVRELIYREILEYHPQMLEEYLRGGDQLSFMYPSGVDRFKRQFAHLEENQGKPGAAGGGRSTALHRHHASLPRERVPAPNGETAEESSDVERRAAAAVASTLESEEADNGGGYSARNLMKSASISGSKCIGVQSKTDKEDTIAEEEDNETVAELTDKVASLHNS
The experiment in a line: split reporter; BiFC with nEYFP(1-174) and cEYFP(175-end) fusions co-infiltrated by Agrobacterium EHA105 into N. benthamiana leaves; observed after 2-3 days.

Assay [3] deals with T3, nEYFP-MPK8 (Arabidopsis thaliana) (UniProt Q9LM33).
T3 sequence: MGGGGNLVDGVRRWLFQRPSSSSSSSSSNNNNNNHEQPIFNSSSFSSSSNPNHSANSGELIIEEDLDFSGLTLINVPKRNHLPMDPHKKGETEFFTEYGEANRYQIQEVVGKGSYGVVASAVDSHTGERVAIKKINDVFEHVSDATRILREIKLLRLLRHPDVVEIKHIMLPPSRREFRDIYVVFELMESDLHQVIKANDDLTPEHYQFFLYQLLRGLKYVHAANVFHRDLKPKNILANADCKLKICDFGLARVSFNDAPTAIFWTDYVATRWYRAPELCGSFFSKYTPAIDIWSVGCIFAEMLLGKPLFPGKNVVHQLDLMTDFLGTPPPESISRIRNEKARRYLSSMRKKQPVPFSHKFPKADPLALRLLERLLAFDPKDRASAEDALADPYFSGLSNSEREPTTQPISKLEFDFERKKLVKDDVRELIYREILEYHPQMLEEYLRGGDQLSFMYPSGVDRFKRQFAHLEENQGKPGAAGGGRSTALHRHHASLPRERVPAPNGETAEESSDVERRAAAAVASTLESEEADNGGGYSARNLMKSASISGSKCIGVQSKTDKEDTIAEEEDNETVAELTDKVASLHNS
Described as above.

These are yes or no findings as the source states them, for the method shown. For part of these data: Binding seen in cells or lysates may run through a third protein. Some results given as binding are weak or reduced against the parent protein; the word gives no strength. For part of these data: Sequences can lack the tags named with a protein.

B1: AD-LSF2 (LIKE SEX FOUR2 fused to the GAL4 activation domain) (enzyme, UniProt Q9SRK5 1-282)
chain: MSVIGSKSCIFSVARYTRENEKSSCFTSINKKSSLDLRFPRNLAGVSCKFSGENPGTNGVSLSSKNKMEDYNTAMKRLMRSPYEYHHDLGMNYTLIRDELIVGSQPQKPEDIDHLKQEQNVAYILNLQQDKDIEYWGIDLDSIVRRCKELGIRHMRRPAKDFDPLSLRSQLPKAVSSLEWAVSEGKGRVYVHCSAGLGRAPGVSIAYMYWFCDMNLNTAYDTLVSKRPCGPNKGAIRGATYDLAKNDPWKEPFESLPENAFEDIADWERKLIQERVRALRGT
With B1, the binding entry in assay [1] is “binds”.

B2: nEYFP-LSF2 (enzyme, UniProt Q9SRK5 62-282)
chain: LSSKNKMEDYNTAMKRLMRSPYEYHHDLGMNYTLIRDELIVGSQPQKPEDIDHLKQEQNVAYILNLQQDKDIEYWGIDLDSIVRRCKELGIRHMRRPAKDFDPLSLRSQLPKAVSSLEWAVSEGKGRVYVHCSAGLGRAPGVSIAYMYWFCDMNLNTAYDTLVSKRPCGPNKGAIRGATYDLAKNDPWKEPFESLPENAFEDIADWERKLIQERVRALRGT
Take B2: the binding entry in assay [2] was “binds”.

B3: LSF2-cEYFP (enzyme, UniProt Q9SRK5 62-282)
chain: LSSKNKMEDYNTAMKRLMRSPYEYHHDLGMNYTLIRDELIVGSQPQKPEDIDHLKQEQNVAYILNLQQDKDIEYWGIDLDSIVRRCKELGIRHMRRPAKDFDPLSLRSQLPKAVSSLEWAVSEGKGRVYVHCSAGLGRAPGVSIAYMYWFCDMNLNTAYDTLVSKRPCGPNKGAIRGATYDLAKNDPWKEPFESLPENAFEDIADWERKLIQERVRALRGT
For B3, the binding result in assay [3] was “binds”.

The values are drawn from paper PMC4923905.
